Values from PubChem BioAssay AID504764 (Drosophila RNAi Screening Center, 2011)
Screen: 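Knock-downs that raise or lower a Notch target reporter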 (primary screen). Cell system: Drosophila Kc167 cells. Knock-down reagent: long dsRNA against Drosophila genes. Timing: about 5 days (4 days dsRNA, then 24 h after transfection). Treatment: transfection of constitutively active membrane-tethered Notch lacking the extracellular domain, read 24 h later. Measured: 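Light from a Notch-responsive E(spl)m3 luciferase reporter under active Notch, with control-promoter and no-Notch reporter wells to normalise; raw counts from paired wells a and b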. Direction: induced reporter light, run 1, well a and induced reporter light, run 1, well b: higher = more light from the Notch target reporter with active Notch; control promoter light, run 1, well a and control promoter light, run 1, well b: higher = more light from the viral control promoter (cell number, transfection, viability); uninduced reporter light, run 1, well a: higher = more light from the Notch target reporter without active Notch. Hit rule: 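Wells with low control signal or poorly matching duplicates excluded; duplicates averaged; per source plate, z beyond ±2 for induced/control log2 ratio or beyond ±1.8 for induced/uninduced marks a hit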. Meaning of the calls: active = modifier hit (raised or lowered Notch signal); inactive = not a hit.
The screen tested about 22,000 reagents; this is a random part of those that have a named target and a result. Over the whole deposit, 403 (1.9%) were called active. 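Unnormalised raw counts per well; ratio z-scores behind the hit calls and whether each hit raises or lowers signal are not deposited.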 Entries without a mark were called inactive. A plus sign joins genes that one reagent is predicted to hit. No sequences are given here. The record does not give: the amount of reagent.

Mi-2 + Su(Tpl) → induced reporter light, run 1, well a: 2.46e5; induced reporter light, run 1, well b: 2.80e5; control promoter light, run 1, well a: 3.60e5; control promoter light, run 1, well b: 2.98e5; uninduced reporter light, run 1, well a: 19350
Tsp42El (GeneID 35622) → induced reporter light, run 1, well a: 1.82e5; induced reporter light, run 1, well b: 2.34e5; control promoter light, run 1, well a: 2.21e5; control promoter light, run 1, well b: 2.49e5; uninduced reporter light, run 1, well a: 18820
wisp (GeneID 32152) → induced reporter light, run 1, well a: 93210; induced reporter light, run 1, well b: 1.11e5; control promoter light, run 1, well a: 81540; control promoter light, run 1, well b: 86590; uninduced reporter light, run 1, well a: 10200
CG13045 (GeneID 39792) → induced reporter light, run 1, well a: 2.36e5; induced reporter light, run 1, well b: 1.80e5; control promoter light, run 1, well a: 3.15e5; control promoter light, run 1, well b: 2.11e5; uninduced reporter light, run 1, well a: 8645
eIF4A (GeneID 33835) → induced reporter light, run 1, well a: 3655; induced reporter light, run 1, well b: 3315; control promoter light, run 1, well a: 5995; control promoter light, run 1, well b: 5635; uninduced reporter light, run 1, well a: 255
snRNA:U1:95Cc (GeneID 3772462) → induced reporter light, run 1, well a: 21055; induced reporter light, run 1, well b: 22382; control promoter light, run 1, well a: 12455; control promoter light, run 1, well b: 12145; uninduced reporter light, run 1, well a: 4270
CG8036 (GeneID 41027) → induced reporter light, run 1, well a: 87900; induced reporter light, run 1, well b: 74255; control promoter light, run 1, well a: 65625; control promoter light, run 1, well b: 62840; uninduced reporter light, run 1, well a: 5720
COX7AL (GeneID 40995) → induced reporter light, run 1, well a: 1.08e5; induced reporter light, run 1, well b: 1.02e5; control promoter light, run 1, well a: 85725; control promoter light, run 1, well b: 59485; uninduced reporter light, run 1, well a: 3895
CG15771 (GeneID 31500) → induced reporter light, run 1, well a: 92335; induced reporter light, run 1, well b: 96850; control promoter light, run 1, well a: 1.23e5; control promoter light, run 1, well b: 1.66e5; uninduced reporter light, run 1, well a: 7765
CG13255 (GeneID 50109) → induced reporter light, run 1, well a: 1.28e5; induced reporter light, run 1, well b: 1.08e5; control promoter light, run 1, well a: 65525; control promoter light, run 1, well b: 62920; uninduced reporter light, run 1, well a: 10920
mthl4 (GeneID 36960) → induced reporter light, run 1, well a: 54365; induced reporter light, run 1, well b: 36285; control promoter light, run 1, well a: 33015; control promoter light, run 1, well b: 47335; uninduced reporter light, run 1, well a: 3215
CG12828 (GeneID 5740660) → induced reporter light, run 1, well a: 2.19e5; induced reporter light, run 1, well b: 2.14e5; control promoter light, run 1, well a: 2.50e5; control promoter light, run 1, well b: 2.47e5; uninduced reporter light, run 1, well a: 18250

2 of these entries, set out differently.
| Gene | induced reporter light, run 1, well a | induced reporter light, run 1, well b | control promoter light, run 1, well a | control promoter light, run 1, well b | uninduced reporter light, run 1, well a |
| --- | --- | --- | --- | --- | --- |
| CG8036 (GeneID 41027) | 87900 | 74255 | 65625 | 62840 | 5720 |
| COX7AL (GeneID 40995) | 1.08e5 | 1.02e5 | 85725 | 59485 | 3895 |
